The other results are listed elsewhere or left out.
Columns and labels:
Assay in all cases: glycan array binding signal (z-score within array); higher = stronger binding
Conditions in all cases: glycan notation: IUPAC condensed, linker removed
[1] = target: Neu5Ac(a2-3)Gal(b1-4)GlcNAc(b1-3)Gal(b1-4)[Fuc(a1-3)]GlcNAc
Procedure, shortened: (§1)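 From the Consortium for Functional Glycomics database, 3228 arrays were curated, keeping only those whose protein sequence was available. Binding is given as a within-array Z-score averaged across arrays sharing a protein sequence and across linkers. Negative Z-scores can be read as non-binding.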

[2] = target: Neu5Ac(a2-3)Gal(b1-4)GlcNAc(b1-6)[Gal(b1-3)]GalNAc
Procedure, shortened: as §1

[3] = target: Neu5Ac(a2-3)Gal(b1-4)GlcNAc6S
Procedure, shortened: as §1

[4] = target: Neu5Ac(a2-3)Gal(b1-4)[Fuc(a1-3)]GlcNAc
Procedure, shortened: as §1

[5] = target: Neu5Ac(a2-3)Gal(b1-4)[Fuc(a1-3)]GlcNAc(b1-3)Gal
Procedure, shortened: as §1

[6] = target: Neu5Ac(a2-3)Gal(b1-4)[Fuc(a1-3)]GlcNAc(b1-3)Gal(b1-4)GlcNAc
Procedure, shortened: as §1

[7] = target: Neu5Ac(a2-3)Gal(b1-4)[Fuc(a1-3)]GlcNAc(b1-3)Gal(b1-4)[Fuc(a1-3)]GlcNAc(b1-3)Gal(b1-4)[Fuc(a1-3)]GlcNAc
Procedure, shortened: as §1

[8] = target: Neu5Ac(a2-3)Gal(b1-4)[Fuc(a1-3)]GlcNAc6S
Procedure, shortened: as §1

[9] = target: Neu5Ac(a2-3)Gal6S(b1-4)GlcNAc
Procedure, shortened: as §1

[10] = target: Neu5Ac(a2-3)Gal6S(b1-4)[Fuc(a1-3)]GlcNAc
Procedure, shortened: as §1

Neu5Ac(a2-3)GalNAc = target: Neu5Ac(a2-3)GalNAc
Procedure, shortened: as §1

[11] = target: Neu5Ac(a2-3)GalNAc(b1-4)GlcNAc
Procedure, shortened: as §1

[12] = target: Neu5Ac(a2-3)[GalNAc(b1-4)]Gal(b1-4)Glc
Procedure, shortened: as §1

[13] = target: Neu5Ac(a2-3)[GalNAc(b1-4)]Gal(b1-4)GlcNAc
Procedure, shortened: as §1

[14] = target: Neu5Ac(a2-3)[Neu5Ac(a2-6)]GalNAc
Procedure, shortened: as §1

[15] = target: Neu5Ac(a2-6)Gal(b1-4)GlcNAc
Procedure, shortened: as §1

[16] = target: Neu5Ac(a2-6)Gal(b1-4)GlcNAc(b1-2)Man(a1-3)[Neu5Ac(a2-6)Gal(b1-4)GlcNAc(b1-2)Man(a1-6)]Man(b1-4)GlcNAc(b1-4)GlcNAc
Procedure, shortened: as §1

[17] = target: Neu5Ac(a2-6)Gal(b1-4)GlcNAc(b1-3)Gal(b1-4)GlcNAc
Procedure, shortened: as §1

[18] = target: Neu5Ac(a2-6)Gal(b1-4)GlcNAc(b1-3)Gal(b1-4)[Fuc(a1-3)]GlcNAc(b1-3)Gal(b1-4)[Fuc(a1-3)]GlcNAc
Procedure, shortened: as §1

[19] = target: Neu5Ac(a2-6)Gal(b1-4)GlcNAc6S
Procedure, shortened: as §1

Neu5Ac(a2-6)GalNAc = target: Neu5Ac(a2-6)GalNAc
Procedure, shortened: as §1

[20] = target: Neu5Ac(a2-6)GalNAc(b1-4)GlcNAc
Procedure, shortened: as §1

Neu5Ac(a2-8)Neu5Ac = target: Neu5Ac(a2-8)Neu5Ac
Procedure, shortened: as §1

[21] = target: Neu5Ac(a2-8)Neu5Ac(a2-3)Gal(b1-4)Glc
Procedure, shortened: as §1

[22] = target: Neu5Ac(a2-8)Neu5Ac(a2-3)[GalNAc(b1-4)]Gal(b1-4)Glc
Procedure, shortened: as §1

[23] = target: Neu5Ac(a2-8)Neu5Ac(a2-8)Neu5Ac
Procedure, shortened: as §1

[24] = target: Neu5Ac(a2-8)Neu5Ac(a2-8)Neu5Ac(a2-3)Gal(b1-4)Glc
Procedure, shortened: as §1

[25] = target: Neu5Ac(a2-8)Neu5Ac(a2-8)Neu5Ac(a2-3)[GalNAc(b1-4)]Gal(b1-4)Glc
Procedure, shortened: as §1

[26] = target: Neu5Ac(a2-8)Neu5Ac(a2-8)Neu5Ac(a2-8)Neu5Ac(a2-3)[GalNAc(b1-4)]Gal(b1-4)Glc
Procedure, shortened: as §1

[27] = target: Neu5Ac9Ac(a2-6)Gal(b1-4)GlcNAc
Procedure, shortened: as §1

[28] = target: Neu5Gc(a2-3)Gal(b1-3)GlcNAc
Procedure, shortened: as §1

[29] = target: Neu5Gc(a2-3)Gal(b1-3)[Fuc(a1-4)]GlcNAc
Procedure, shortened: as §1

Neu5Gc(a2-3)Gal(b1-4)Glc = target: Neu5Gc(a2-3)Gal(b1-4)Glc
Procedure, shortened: as §1

[30] = target: Neu5Gc(a2-3)Gal(b1-4)GlcNAc
Procedure, shortened: as §1

[31] = target: Neu5Gc(a2-3)Gal(b1-4)[Fuc(a1-4)]GlcNAc
Procedure, shortened: as §1

[32] = target: Neu5Gc(a2-6)Gal(b1-4)GlcNAc
Procedure, shortened: as §1

Neu5Gc(a2-6)GalNAc = target: Neu5Gc(a2-6)GalNAc
Procedure, shortened: as §1

B1: FBG2 (Homo sapiens), Q9NRD1 (protein)
chain: MDAPHSKAALDSINELPENILLELFTHVPARQLLLNCRLVCSLWRDLIDLMTLWKRKCLREGFITKDWDQPVADWKIFYFLRSLHRNLLRNPCAEEDMFAWQIDFNGGDRWKVESLPGAHGTDFPDPKVKKYFVTSYEMCLKSQLVDLVAEGYWEELLDTFRPDIVVKDWFAARADCGCTYQLKVQLASADYFVLASFEPPPVTIQQWNNATWTEVSYTFSDYPRGVRYILFQHGGRDTQYWAGWYGPRVTNSSIVVSPKMTRNQASSEAQPGQKHGQEEAAQSPYRAVVQIFPPPVTIQQWNNATWTEVSYTFSDYPRGVRYILFQHGGRDTQYWAGWYGPRVTNSSIVVSPKMTRNQASSEAQPGQKHGQEEAAQSPYRAVVQI
glycan array binding signal (z-score) [1]: -0.562 | glycan array binding signal (z-score) [2]: -0.612 | glycan array binding signal (z-score) [3]: 0.008 | glycan array binding signal (z-score) [4]: -0.597 | glycan array binding signal (z-score) [5]: -0.697 | glycan array binding signal (z-score) [6]: -0.464 | glycan array binding signal (z-score) [7]: -0.563 | glycan array binding signal (z-score) [8]: 0.245 | glycan array binding signal (z-score) [9]: 1.16 | glycan array binding signal (z-score) [10]: -0.589 | glycan array binding signal (z-score) (Neu5Ac(a2-3)GalNAc): -0.744 | glycan array binding signal (z-score) [11]: -0.657 | glycan array binding signal (z-score) [12]: -0.116 | glycan array binding signal (z-score) [13]: -0.719 | glycan array binding signal (z-score) [14]: -0.32 | glycan array binding signal (z-score) [15]: -0.736 | glycan array binding signal (z-score) [16]: 0.023 | glycan array binding signal (z-score) [17]: -0.877 | glycan array binding signal (z-score) [18]: -0.738 | glycan array binding signal (z-score) [19]: 0.481 | glycan array binding signal (z-score) (Neu5Ac(a2-6)GalNAc): -0.767 | glycan array binding signal (z-score) [20]: -0.582 | glycan array binding signal (z-score) (Neu5Ac(a2-8)Neu5Ac): -0.347 | glycan array binding signal (z-score) [21]: -0.28 | glycan array binding signal (z-score) [22]: -0.018 | glycan array binding signal (z-score) [23]: -0.196 | glycan array binding signal (z-score) [24]: -0.552 | glycan array binding signal (z-score) [25]: 0.005 | glycan array binding signal (z-score) [26]: -0.367 | glycan array binding signal (z-score) [27]: 0.535 | glycan array binding signal (z-score) [28]: -0.662 | glycan array binding signal (z-score) [29]: -0.831 | glycan array binding signal (z-score) (Neu5Gc(a2-3)Gal(b1-4)Glc): -0.742 | glycan array binding signal (z-score) [30]: -0.746 | glycan array binding signal (z-score) [31]: -0.731 | glycan array binding signal (z-score) [32]: -0.561 | glycan array binding signal (z-score) (Neu5Gc(a2-6)GalNAc): -0.848

Reference: the supplement of paper PMC8728848
